At least one compound was matched to its structure with a doubt left.
Test system: TEX cells
Assay: TEX cell viability with tetracycline analogues, MTS assay
Assay type: cell-based, human
Details: concentrations up to 25 μM, 72 hours

Question: With `CN(C)c1ccc(O)c2c1C[C@H]1C[C@H]3[C@H](N(C)C)C(O)=C(C(N)=O)C(=O)[C@@]3(O)C(O)=C1C2=O` [minocycline] as the molecule, how does the “sensitivity of TEX cells” value read?
Answer: not sensitive

Question: How did the “sensitivity of TEX cells” value turn out when `CN(C)[C@@H]1C(O)=C(C(N)=O)C(=O)[C@@]2(O)C(O)=C3C(=O)c4c(O)cccc4[C@@](C)(O)[C@H]3C[C@@H]12` [tetracycline] was run?
Answer: not sensitive
